# Measurements taken from US6495336B1 (Pentapharm AG, priority 2001, dated 2002).
# Test: general procedure: solution-phase peptide synthesis; TBTU/NMM; DCC/NHS
substance,measurement,setting,value
Boc-(D)-Chg-Gly-Pro-Arg 3-chloro-4-hydroxyanilide×TFA,step yield,"coupling step, TFA salt",68.0%
H-(D)-Chg-Gly-Pro-Arg 3-chloro-4-hydroxyanilide×2 TFA,step yield,"late stage modification step, 2 TFA",72.0%
t-Bups-(D)-Chg-Gly-Pro-Arg 3-chloro-4-hydroxyanilide×AcOH,step yield,"late stage modification step, AcOH",88.0%
t-Bups-(D)-Chg-Gly-Pro-Arg 3-chloro-4-hydroxyanilide×TFA,step yield,"late stage modification step, TFA salt",83.0%
